According to article PMC7482812:
No constants are given. Whether binding was seen depends on the method and setting. In cells and extracts the contact can be indirect. Some entries that bind do so weakly or less than the wild type.

The chains behind the UniProt entries cited, without tags or fusion partners. Where a name states a change or a piece, a line headed by the entry shows the natural chain unless it says otherwise.
UniProt P03372: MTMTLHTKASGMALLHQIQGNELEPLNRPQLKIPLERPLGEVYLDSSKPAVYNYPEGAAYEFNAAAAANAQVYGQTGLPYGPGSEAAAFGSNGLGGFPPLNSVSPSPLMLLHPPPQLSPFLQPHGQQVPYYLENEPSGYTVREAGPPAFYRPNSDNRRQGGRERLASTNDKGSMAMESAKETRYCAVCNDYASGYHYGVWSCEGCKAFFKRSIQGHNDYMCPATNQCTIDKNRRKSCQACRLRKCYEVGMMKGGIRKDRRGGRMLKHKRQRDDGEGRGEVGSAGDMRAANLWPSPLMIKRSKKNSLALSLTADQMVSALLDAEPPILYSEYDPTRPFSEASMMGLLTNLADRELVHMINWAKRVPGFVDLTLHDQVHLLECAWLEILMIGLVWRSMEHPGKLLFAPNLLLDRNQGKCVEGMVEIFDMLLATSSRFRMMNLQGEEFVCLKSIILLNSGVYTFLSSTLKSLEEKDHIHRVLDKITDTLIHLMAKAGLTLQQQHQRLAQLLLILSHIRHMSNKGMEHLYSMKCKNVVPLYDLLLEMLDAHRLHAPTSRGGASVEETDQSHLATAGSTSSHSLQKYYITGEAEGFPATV
UniProt P46527: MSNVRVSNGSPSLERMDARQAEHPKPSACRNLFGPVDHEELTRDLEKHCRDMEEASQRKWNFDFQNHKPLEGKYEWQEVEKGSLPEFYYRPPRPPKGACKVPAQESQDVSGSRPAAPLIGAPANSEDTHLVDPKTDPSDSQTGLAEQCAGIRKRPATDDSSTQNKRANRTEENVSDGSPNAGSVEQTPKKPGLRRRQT
UniProt P24385: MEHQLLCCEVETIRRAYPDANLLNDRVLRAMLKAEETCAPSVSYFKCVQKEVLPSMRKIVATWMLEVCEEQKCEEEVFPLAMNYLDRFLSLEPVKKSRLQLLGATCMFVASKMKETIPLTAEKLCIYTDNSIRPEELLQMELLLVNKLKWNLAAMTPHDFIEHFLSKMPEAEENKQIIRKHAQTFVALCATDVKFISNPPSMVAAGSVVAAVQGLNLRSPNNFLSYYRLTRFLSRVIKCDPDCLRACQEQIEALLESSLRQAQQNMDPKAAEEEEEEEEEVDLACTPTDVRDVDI

Columns and labels:
[1] = molecular target: estrogen receptor-α (human (endogenous in T47D)) (UniProt P03372); assay: co-IP; T47D cells (control, miR-575-overexpressing, miR-575/BRCA1-overexpressing, miR-575-depleted); precipitated with anti-ERα antibody or control normal IgG, blotted with anti-cyclin D1, anti-BRCA1 or anti-ERα antibody
[2] = molecular target: cyclin dependent kinase inhibitor 1B (human (endogenous in T47D)) (UniProt P46527); assay: co-IP; hormone-deprived T47D cells transfected with a CDKN1B-expressing plasmid or vector control, with or without 10 nM E2 for 48 h; precipitated with anti-CDKN1B antibody or control normal IgG, blotted with anti-ERα antibody
[3] = molecular target: cyclin dependent kinase inhibitor 1B (human (endogenous in T47D)) (UniProt P46527); assay: co-IP; cytoplasmic and nuclear fractions of the same T47D cells; precipitated with anti-CDKN1B antibody or control normal IgG, blotted with anti-ERα antibody

| Substance | binding [1] | binding [2] | binding [3] |
| --- | --- | --- | --- |
| cyclin D1 (from UniProt P24385 1-295) | binds |  |  |
| estrogen receptor-α (from UniProt P03372 1-595) |  | binds | binds |
